# Reference: article PMC7275066
# Chains of the proteins cited; added tags and fusions are not shown.
# UniProt Q05138: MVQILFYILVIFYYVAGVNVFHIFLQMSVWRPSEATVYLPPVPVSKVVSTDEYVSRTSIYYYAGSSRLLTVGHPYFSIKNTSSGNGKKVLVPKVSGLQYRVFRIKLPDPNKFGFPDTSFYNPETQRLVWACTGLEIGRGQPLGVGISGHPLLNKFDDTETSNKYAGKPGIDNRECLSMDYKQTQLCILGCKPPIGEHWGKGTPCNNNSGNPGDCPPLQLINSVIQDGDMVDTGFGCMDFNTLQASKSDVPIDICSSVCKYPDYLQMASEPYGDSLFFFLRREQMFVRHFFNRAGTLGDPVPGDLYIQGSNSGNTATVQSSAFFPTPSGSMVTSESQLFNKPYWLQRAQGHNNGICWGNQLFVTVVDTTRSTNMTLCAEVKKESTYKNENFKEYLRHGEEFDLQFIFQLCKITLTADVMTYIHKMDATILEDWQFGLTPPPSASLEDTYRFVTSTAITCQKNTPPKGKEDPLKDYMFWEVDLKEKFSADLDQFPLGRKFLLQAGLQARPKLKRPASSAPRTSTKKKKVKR
# These are yes or no findings as the source states them, for the method shown. Some results given as binding are weak or reduced against the parent protein; the word gives no strength.
# Target: wild-type HPV52L1 expressed in 293FT cells (human papillomavirus type 52 (HPV52)) (UniProt Q05138)
# Assay: negative-staining TEM; L1 (and L2, pN31-EGFP) plasmids transfected into 293FT cells; particles purified by Capto Core 700 and viewed by TEM
substance,measurement,value
wild-type HPV52L1 expressed in 293FT cells (from UniProt Q05138 1-529),binding,binds
